# Results are given in words; binding and its absence hold for the method and conditions named. In cells and extracts the contact can be indirect. Some binding calls cover weakened binding; strength is not graded here.
# Protein sequences, listed by entry. Tags and fused reporters are not part of them. Residues count along the entry.
# UniProt P08581, residues 25-1390: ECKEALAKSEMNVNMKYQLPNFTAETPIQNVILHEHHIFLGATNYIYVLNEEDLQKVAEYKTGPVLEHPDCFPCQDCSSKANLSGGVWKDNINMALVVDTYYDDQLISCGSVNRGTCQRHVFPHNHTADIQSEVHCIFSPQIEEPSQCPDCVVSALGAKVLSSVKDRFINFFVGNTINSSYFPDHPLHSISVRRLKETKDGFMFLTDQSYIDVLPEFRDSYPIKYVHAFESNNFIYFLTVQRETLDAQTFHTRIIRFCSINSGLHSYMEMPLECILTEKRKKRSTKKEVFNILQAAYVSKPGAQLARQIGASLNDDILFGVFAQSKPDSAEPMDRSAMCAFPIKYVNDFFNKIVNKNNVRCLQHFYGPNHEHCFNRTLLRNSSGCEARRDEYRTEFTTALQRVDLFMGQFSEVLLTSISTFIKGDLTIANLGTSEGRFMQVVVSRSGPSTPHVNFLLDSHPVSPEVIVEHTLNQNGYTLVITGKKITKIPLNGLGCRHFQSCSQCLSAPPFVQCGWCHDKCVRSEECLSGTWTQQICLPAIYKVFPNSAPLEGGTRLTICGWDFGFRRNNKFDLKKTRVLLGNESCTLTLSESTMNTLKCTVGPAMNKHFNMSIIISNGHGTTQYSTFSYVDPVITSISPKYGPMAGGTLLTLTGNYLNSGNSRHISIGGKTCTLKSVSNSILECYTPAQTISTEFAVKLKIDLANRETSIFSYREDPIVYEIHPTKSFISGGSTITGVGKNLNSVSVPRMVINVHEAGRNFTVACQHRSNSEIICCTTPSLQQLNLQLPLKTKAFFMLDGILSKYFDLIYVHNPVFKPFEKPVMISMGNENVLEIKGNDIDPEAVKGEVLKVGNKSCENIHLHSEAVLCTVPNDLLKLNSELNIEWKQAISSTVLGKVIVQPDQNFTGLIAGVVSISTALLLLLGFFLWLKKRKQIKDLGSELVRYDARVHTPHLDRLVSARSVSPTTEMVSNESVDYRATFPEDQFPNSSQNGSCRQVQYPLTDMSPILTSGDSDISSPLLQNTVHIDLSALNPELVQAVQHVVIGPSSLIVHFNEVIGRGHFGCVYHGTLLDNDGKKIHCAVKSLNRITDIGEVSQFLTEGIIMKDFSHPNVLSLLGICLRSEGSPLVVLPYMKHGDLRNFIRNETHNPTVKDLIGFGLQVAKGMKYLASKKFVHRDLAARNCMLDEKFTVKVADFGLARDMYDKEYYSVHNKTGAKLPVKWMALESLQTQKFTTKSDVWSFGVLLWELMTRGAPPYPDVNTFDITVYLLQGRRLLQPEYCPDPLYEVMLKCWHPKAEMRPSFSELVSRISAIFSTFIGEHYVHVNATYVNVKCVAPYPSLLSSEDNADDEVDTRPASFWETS
# UniProt P35968, residues 20-1356: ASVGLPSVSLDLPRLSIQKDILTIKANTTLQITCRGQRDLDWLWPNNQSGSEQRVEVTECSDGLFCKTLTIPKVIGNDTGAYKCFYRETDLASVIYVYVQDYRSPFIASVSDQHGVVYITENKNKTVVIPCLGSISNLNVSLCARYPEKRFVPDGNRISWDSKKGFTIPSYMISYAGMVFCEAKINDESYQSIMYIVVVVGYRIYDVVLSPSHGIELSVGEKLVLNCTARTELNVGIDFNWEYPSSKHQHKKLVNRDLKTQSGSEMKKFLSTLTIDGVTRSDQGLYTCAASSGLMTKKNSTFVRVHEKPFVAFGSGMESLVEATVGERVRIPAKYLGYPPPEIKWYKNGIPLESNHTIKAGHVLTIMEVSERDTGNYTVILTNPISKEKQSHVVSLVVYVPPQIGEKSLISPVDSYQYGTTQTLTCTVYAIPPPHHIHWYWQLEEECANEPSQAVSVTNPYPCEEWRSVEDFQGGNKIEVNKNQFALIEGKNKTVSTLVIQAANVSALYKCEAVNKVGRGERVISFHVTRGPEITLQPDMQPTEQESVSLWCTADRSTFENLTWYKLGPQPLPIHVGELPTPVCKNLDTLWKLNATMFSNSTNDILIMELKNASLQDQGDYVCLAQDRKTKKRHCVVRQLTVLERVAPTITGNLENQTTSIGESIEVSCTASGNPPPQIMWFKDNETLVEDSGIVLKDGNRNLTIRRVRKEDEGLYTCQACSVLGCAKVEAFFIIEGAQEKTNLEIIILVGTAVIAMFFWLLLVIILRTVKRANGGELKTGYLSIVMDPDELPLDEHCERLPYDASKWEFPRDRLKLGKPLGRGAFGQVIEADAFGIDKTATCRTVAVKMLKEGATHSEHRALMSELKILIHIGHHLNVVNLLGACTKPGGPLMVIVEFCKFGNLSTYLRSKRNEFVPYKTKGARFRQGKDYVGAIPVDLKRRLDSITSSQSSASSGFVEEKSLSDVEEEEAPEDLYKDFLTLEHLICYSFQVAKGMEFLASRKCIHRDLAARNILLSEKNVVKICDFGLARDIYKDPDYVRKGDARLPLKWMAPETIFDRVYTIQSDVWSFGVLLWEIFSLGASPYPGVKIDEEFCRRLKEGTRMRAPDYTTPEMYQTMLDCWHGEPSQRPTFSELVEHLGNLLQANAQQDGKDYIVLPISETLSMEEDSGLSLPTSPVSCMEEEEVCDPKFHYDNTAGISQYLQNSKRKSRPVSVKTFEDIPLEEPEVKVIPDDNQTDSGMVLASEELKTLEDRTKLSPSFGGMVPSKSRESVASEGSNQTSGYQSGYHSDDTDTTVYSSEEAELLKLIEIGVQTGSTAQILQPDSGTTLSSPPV
# Key:
# [1] = target: Flag-MET (mesenchymal epithelial transition factor, hepatocyte growth factor receptor) (UniProt P08581); assay: co-IP; PC-9/Vec or PC-9/MET cells lysed in NP-40 with PMSF and phosphatase inhibitors; anti-IgG or anti-Flag antibody overnight at 4 °C, protein A/G magnetic beads; western blotting
# [2] = target: vascular endothelial growth factor receptor 2 (VEGFR2) (human (endogenous in PC-9)) (UniProt P35968); assay: co-IP; VEGFR2 immunoprecipitates blotted for MET and phosphorylated MET; cells untreated, treated with VEGF, or with VEGF and apatinib; NP-40 lysate, protein A/G magnetic beads
binding [1],binding [2],Substance
binds,,vascular endothelial growth factor receptor 2 (VEGFR2) (from UniProt P35968 20-1356)
,binds,MET found in VEGFR2 immunoprecipitates (from UniProt P08581 25-1390) (receptor)

# From paper PMC11443824
